Test results as given in PubChem BioAssay AID2551 (National Center for Advancing Translational Sciences (NCATS), 2010).
Several values for one entry are separate records, joined by “and”; a condition that tells them apart may be missing. Equal values may be shown once. The campaign covered roughly 310,000 compounds. About 17,000 (5.5%) were called active. Inconclusive means that the source gave no clear call. Such entries were picked first, then a sample of the others. Calls follow the shape of the dose curve; as a rule, active = well fitted inhibition curve with a large enough effect; inconclusive = small, poorly fitted or top-dose-only effect, or effect the other way; inactive = no such curve, though single readings can be large or run the other way. Where the call is inconclusive, the potency comes from a doubtful curve fit.

Amino acid sequences for entries named in this document (tags omitted). A change or cut given only in a name is not applied to a line headed by its entry.
UniProt P51450: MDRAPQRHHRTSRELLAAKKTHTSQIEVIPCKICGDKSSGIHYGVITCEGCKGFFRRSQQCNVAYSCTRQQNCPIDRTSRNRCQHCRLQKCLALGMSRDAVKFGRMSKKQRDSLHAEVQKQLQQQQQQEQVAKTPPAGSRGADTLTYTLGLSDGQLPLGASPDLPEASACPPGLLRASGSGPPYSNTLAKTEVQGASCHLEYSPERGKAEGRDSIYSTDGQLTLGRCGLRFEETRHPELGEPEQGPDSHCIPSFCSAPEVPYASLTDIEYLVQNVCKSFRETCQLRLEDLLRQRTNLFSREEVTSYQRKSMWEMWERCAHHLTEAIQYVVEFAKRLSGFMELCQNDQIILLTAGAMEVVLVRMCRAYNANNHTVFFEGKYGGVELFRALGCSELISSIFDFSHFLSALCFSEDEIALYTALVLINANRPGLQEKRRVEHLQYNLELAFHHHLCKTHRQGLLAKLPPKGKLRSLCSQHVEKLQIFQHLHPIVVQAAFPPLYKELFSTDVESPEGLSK

target: Nuclear receptor ROR-gamma (Mus musculus) (UniProt P51450); experiment: qHTS for inhibitors of ROR gamma transcriptional activity; settings: Drosophila S2 Gal4-RORgamma UAS-luciferase reporter, 20 h; activity change, negative = inhibition: at 53.6 µM (top of the series); also: nearly all actives have a fitted effect of over 60% in size
In short: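 Stable Schneider cell line, Gal4 DNA-binding domain fused to ROR gamma, UAS-luciferase. Cmpd 1 hr RT → CuSO4 700 uM final → 20 hr RT → luciferase reagent 10 min → luminescence.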
% is scaled to controls: 0 for no effect and ±100 for the full control effect; potency is read from the fitted curve at half-maximal effect.

c1ccc(-c2nc(NCc3ccco3)c3ccccc3n2)cc1 was tested. Which Potency did it give?
The Potency was inconclusive: 20 µM [inhibitor, single point].

For N#C/C(=C\c1ccc(-c2ccccc2[N+](=O)[O-])o1)C(=O)N1CCOCC1, which Potency is on record?
Its Potency is inconclusive: 8.91 µM [inhibitor, partial curve].

How did the Potency turn out when CCNc1nc(OC)nc(N2CCC(Cc3ccccc3)CC2)n1 was run?
The Potency was inconclusive: 35.5 µM [inhibitor, single point].

For CN(C)C1CCN(C(=O)c2cccc(OC3CCN(S(=O)(=O)N(C)C)CC3)c2)C1 (stereo not drawn), which “activity change, negative = inhibition” value is on record?
Its value is inactive: 0.831%.

Which Potency does the source give for Cc1cc2cc(CNC(=O)c3cccs3)ccc2[nH]1 here?
The Potency was inconclusive: 0.0032 µM [inhibitor, full curve, poor fit].

With CN(C)c1ccc(Nc2nc(N)c3ccccc3n2)cc1 as the compound, how does the Potency read?
The Potency was inconclusive: 0.355 µM [inhibitor, partial curve, poor fit].

Which Potency does the source give for COc1ccc(C2CC(c3ccc(Cl)cc3)Nc3nc(NC(=O)c4ccco4)nn32)cc1 (stereo not drawn) here?
The Potency was active: 0.708 µM.

Which Potency does the source give for Cc1ccc(NS(=O)(=O)N2CCOCC2)cc1Cl here?
The Potency was active: 0.355 µM.

CC1(C)Cc2c(sc3nnn(Cc4ccc(Cl)cc4)c(=O)c23)CO1 was tested. Which Potency did it give?
The Potency was inconclusive: 15.8 µM [activator, single point].

CC1C(=O)C(C)C(c2ccc([N+](=O)[O-])cc2)NC1c1ccc([N+](=O)[O-])cc1 (stereo not drawn) was tested. Which “activity change, negative = inhibition” value did it give?
The value was inactive: -12.8%.

For O=S(=O)(c1ccccc1)N1CCC(n2nnc3cc(F)ccc32)CC1, which Potency is on record?
Its Potency is inconclusive: 5.62 µM [inhibitor, single point].

How did the Potency turn out when CCCC1=NN2C(=N)/C(=C\c3cc(C)n(-c4cccc(C)c4)c3C)C(=O)N=C2S1 was run?
Its Potency is inconclusive: 35.5 µM [inhibitor, single point].

With COCCNc1c(-c2cc3ccc(C)c(C)c3[nH]c2=O)nc2ccccn12 as the compound, how does the Potency read?
The Potency was inconclusive: 22.4 µM [inhibitor, partial curve, poor fit].

With O=C(Nc1cccn(Cc2ccccc2)c1=O)NC1CCCCC1 as the compound, how does the Potency read?
The Potency was inconclusive: 17.8 µM [activator, single point].

For CC[C@@H]1/C=C(\C)C[C@H](C)C[C@H](OC)[C@H]2O[C@@](O)(C(=O)C(=O)N3CCCC[C@H]3C(=O)O[C@H](/C(C)=C/[C@@H]3CC[C@H](Cl)[C@H](OC)C3)[C@H](C)[C@@H](O)CC1=O)[C@H](C)C[C@@H]2OC, which “activity change, negative = inhibition” value is on record?
The value was inactive: 4.01%.

Which Potency does the source give for CC(C)=CC(=O)Nc1nnc(-c2ccc(F)cc2)s1 here?
Its Potency is inconclusive: 11.2 µM [activator, single point].

With Cc1ccccc1Nc1nnc(C)c(=O)n1N as the compound, how does the Potency read?
The Potency was inconclusive: 5.62 µM [inhibitor, single point].

How did the Potency turn out when COC(=O)c1ccc(CSc2ncnc3sc(C)c(C)c23)o1 was run?
The Potency was active: 17.8 µM.

With C[C@]1(C(=O)NCCCNc2ncc(C(F)(F)F)cc2Cl)C=C[C@@H](Cc2ccccc2)N1C(=O)c1ccccc1 as the compound, how does the Potency read?
The Potency was inconclusive: 14.1 µM [activator, single point] and inconclusive: 14.1 µM [activator, partial curve].

With COc1cc(C(=O)Nc2ccc3c(c2)C(=O)N(CCC(=O)O)C3=O)cc(OC)c1OC as the compound, how does the “activity change, negative = inhibition” value read?
The value was inactive: 32.6%.

COCc1ccc(C(=O)NC2CCCN(Cc3ccccc3F)C2)o1 (stereo not drawn) was tested. Which “activity change, negative = inhibition” value did it give?
The value was inactive: 4.54%.

For Cc1ccc(OCc2ccc(C(=O)Nc3c(C)nn(Cc4c(F)c(F)c(F)c(F)c4F)c3C)o2)c([N+](=O)[O-])c1, which Potency is on record?
Its Potency is inconclusive: 25.1 µM [activator, single point].

For Oc1cccc2ccc(/C=C/c3ccccc3Br)nc12, which Potency is on record?
Its Potency is active: 3.98 µM.

CCC1Sc2ccc(S(=O)(=O)N3CCN(c4ccccc4)CC3)cc2NC1=O (stereo not drawn) was tested. Which Potency did it give?
The Potency was inconclusive: 11.2 µM [activator, single point].

With N#C/C(=C\N1CCOCC1)c1ccccc1 as the compound, how does the “activity change, negative = inhibition” value read?
Its value is inactive: 3%.

With N#Cc1cccc(Cn2cc(C(F)(F)F)ccc2=O)c1 as the compound, how does the “activity change, negative = inhibition” value read?
The value was inactive: -1.38%.

How did the Potency turn out when CCCCN1C(=O)c2ccc(C(=O)Nc3ccc(S(=O)(=O)N(C)C)cc3)cc2C1=O was run?
The Potency was inconclusive: 1.58 µM [activator, single point].

Which Potency does the source give for COCCN(Cc1cc2cc(C)ccc2n2nnnc12)C(=S)Nc1cccc(C)c1 here?
The Potency was inconclusive: 3.16 µM [inhibitor, single point].

With O=S(=O)(c1ccc2ccccc2c1)N1CCN(C(=S)Nc2ccc(F)cc2)CC1 as the compound, how does the “activity change, negative = inhibition” value read?
The value was inactive: -10.7%.

How did the Potency turn out when O=C(c1ccc(S(=O)(=O)N2CCCC2)cc1)N1CCN(c2cccc(Cl)c2)CC1 was run?
The Potency was inconclusive: 35.5 µM [activator, partial curve, poor fit].

How did the “activity change, negative = inhibition” value turn out when COC(=O)c1ccc(NC(=O)CSc2nnc(C3CC3)n2C)cc1 was run?
The value was inactive: -18.9%.

For C(#CCN1CCC(Cc2ccccc2)CC1)COCCOCc1ccccc1, which activity change, negative = inhibition is on record?
Its activity change, negative = inhibition is inactive: 18% [at 10 µM].

With Cc1nn(-c2ccc(NC(=O)c3ccncc3)cc2)c(C)c1Cl as the compound, how does the Potency read?
Its Potency is inconclusive: 3.98 µM [activator, single point].

With CC(C)NC[C@H](O)c1ccc(O)c(O)c1 as the compound, how does the Potency read?
The Potency was “inactive and inconclusive: 12.6 µM [inhibitor, single point]”.

How did the Potency turn out when O=C1Nc2ccccc2S/C1=C/c1cccs1 was run?
Its Potency is inconclusive: 5.01 µM [activator, full curve, poor fit].

For Nc1c(N2CCOCC2)cc(Cl)c2nonc12, which “activity change, negative = inhibition” value is on record?
The value was inactive: -2.35%.

How did the “activity change, negative = inhibition” value turn out when CCCCC1=CC2=C(c3ccco3)C(=O)C(C)(OC(=O)c3ccc(OC)cc3)C(=O)C2=CN1Cc1ccco1 (stereo not drawn) was run?
The value was inactive: 0.0194%.

How did the “activity change, negative = inhibition” value turn out when CC(NC(=O)COC(=O)Cc1ccsc1)C1CC2CCC1C2 (stereo not drawn) was run?
Its value is inactive: -36.2%.

CN(C)c1ncc2nc(CCc3ccccc3)c(=O)n(CCC#N)c2n1 was tested. Which “activity change, negative = inhibition” value did it give?
Its value is inactive: 41.7%.

COc1ccc(NC(=O)c2cccs2)cc1NC(=O)c1ccco1 was tested. Which “activity change, negative = inhibition” value did it give?
The value was inactive: 17.9%.

How did the Potency turn out when Cc1ccc(CN2CCc3c(OCc4ccc(F)cc4)cccc3C2=O)cc1 was run?
Its Potency is inconclusive: 28.2 µM [activator, single point].

Which Potency does the source give for CCc1ccc(/C=N/NC(=O)c2cc(-c3ccccc3OC)nc3ccccc23)s1 here?
The Potency was active: 3.98 µM.

With CCOC(=O)[C@@H]1[C@H]2COc3cc(OC)ccc3[C@@H]2N2C(=O)N(c3ccc(C(F)(F)F)cc3)C(=O)[C@]12C as the compound, how does the “activity change, negative = inhibition” value read?
Its value is inactive: 18.9%.

Which Potency does the source give for CCOC(=O)c1cc(C(=O)Nc2ccccc2F)nn1C here?
The Potency was inconclusive: 35.5 µM [inhibitor, single point].

Which Potency does the source give for N#Cc1cc(C(=O)c2cc(F)ccc2O)cn(Cc2ccccc2)c1=O here?
Its Potency is inconclusive: 12.6 µM [activator, single point].

With COc1ccc(NC(=O)C2=CC(c3ccc(C)cc3)=NS(=O)(=O)N2C)cc1 as the compound, how does the Potency read?
The Potency was inconclusive: 20 µM [activator, single point].

With O=C(O)c1cc(N(Cc2ccccc2O)Cc2ccccc2O)ccc1O as the compound, how does the “activity change, negative = inhibition” value read?
The value was inactive: -20.6%.

For CCCc1ccc(OCc2ccc(C(=O)O)o2)c(OC)c1, which Potency is on record?
Its Potency is inconclusive: 35.5 µM [inhibitor, single point].

CCC(C)c1ccc(NC(=S)NCCn2cc(Cl)cn2)cc1 (stereo not drawn) was tested. Which Potency did it give?
The Potency was active: 3.16 µM.

With C/C(CC(=O)Nc1ccccn1)=N\NC(=O)c1ccccc1 as the compound, how does the “activity change, negative = inhibition” value read?
Its value is inactive: -31.2%.

For CC(C1CC1)N(Cc1ccccc1)C(=S)Nc1ccccc1Cl (stereo not drawn), which Potency is on record?
The Potency was active: 10 µM.

For C=C1C(=O)C=C2CN(C(=O)c3ccccc3)[C@@](Cc3ccc(F)cc3)(C(=O)OC)[C@@H]12, which Potency is on record?
The Potency was active: 3.55 µM and active: 3.16 µM.

For CCN1CCCc2cc(CN(CCN3CCOCC3)C(=S)Nc3ccc(OC)c(Cl)c3)ccc21, which “activity change, negative = inhibition” value is on record?
Its value is inactive: -32.4%.

Which Potency does the source give for S=C(NCc1ccccc1)N1CCN(c2cccc(Cl)c2)CC1 here?
Its Potency is inconclusive: 15.8 µM [inhibitor, single point].

How did the “activity change, negative = inhibition” value turn out when CCSc1nnc(NC(=O)[C@@H](NC(=O)c2ccccc2F)C(C)C)s1 was run?
The value was inactive: 23.5%.

Which “activity change, negative = inhibition” value does the source give for CC(C)NC(=S)NCc1cccnc1 here?
The value was inactive: 7.91%.

How did the “activity change, negative = inhibition” value turn out when NS(=O)(=O)c1ccc(CCNC(=O)COC(=O)CC(c2ccccc2)c2ccccc2)cc1 was run?
The value was inactive: 55.2%.

O=C(C1=C[C@H](c2ccc3c(c2)OCO3)C[C@H](OCc2ccc(CO)cc2)O1)N1CCN(Cc2ccc3c(c2)OCO3)CC1 was tested. Which “activity change, negative = inhibition” value did it give?
The value was inactive: 8.78%.

How did the Potency turn out when CCOc1nc(NCc2ccco2)nc(Nc2ccc(OC)cc2)n1 was run?
Its Potency is inconclusive: 31.6 µM [inhibitor, single point].

With CCOc1ccc(/C=N/NC(=O)NC23CC4CC(CC(C4)C2)C3)cc1O as the compound, how does the Potency read?
The Potency was inconclusive: 25.1 µM [activator, single point].

How did the Potency turn out when CC(C)c1ccc(C(=O)NC(=S)NCc2cccnc2)cc1 was run?
Its Potency is active: 2.82 µM.

For O=C(C1CCCCC1)N1CCN=C1SCc1cccnc1, which Potency is on record?
Its Potency is inconclusive: 35.5 µM [inhibitor, single point].

O=C(CN1CCOCC1)Nc1ncc(Cc2ccccc2Cl)s1 was tested. Which Potency did it give?
Its Potency is inconclusive: 2.51 µM [activator, single point].

Cc1ccc(-c2ccccc2NC(=O)CS(=O)CC(=O)Nc2ccc(C)c(Cl)c2)o1 (stereo not drawn) was tested. Which Potency did it give?
Its Potency is inconclusive: 35.5 µM [inhibitor, single point].

How did the “activity change, negative = inhibition” value turn out when COc1ccccc1NC(=O)/C=C/c1ccc(OC)c(S(=O)(=O)N2CCOCC2)c1 was run?
Its value is inactive: -1.21%.

For Cn1c(=O)c2c(nc(NCc3ccco3)n2Cc2ccccc2Cl)n(C)c1=O, which “activity change, negative = inhibition” value is on record?
The value was inactive: -35%.

For C/C(CC(C)(C)C1CCCCC1)=N\NC(N)=S, which Potency is on record?
The Potency was active: 0.891 µM.

How did the Potency turn out when O=C(NC(=S)Nc1ccc2c(c1)OCO2)c1ccccc1 was run?
The Potency was active: 4.47 µM.

How did the Potency turn out when C=CCNC(=S)NC(=O)c1oc2ccccc2c1C was run?
Its Potency is active: 6.31 µM.

Which Potency does the source give for Cc1cc(NCCc2ccc(Cl)cc2)n2ncnc2n1 here?
The Potency was inconclusive: 12.6 µM [activator, single point].

CCn1cc(C(=O)NCc2cccc(F)c2)c(=O)c2cc(F)c(N3CCN(C(=O)c4ccco4)CC3)cc21 was tested. Which Potency did it give?
Its Potency is inconclusive: 10 µM [inhibitor, partial curve].

For Cn1cc(/C=C(\C#N)C(=O)Nc2cccc([N+](=O)[O-])c2)c2ccccc21, which “activity change, negative = inhibition” value is on record?
The value was inactive: -8.01%.

Which “activity change, negative = inhibition” value does the source give for CC(=O)c1ccc(-n2nnnc2SCC(=O)NC2CCCCC2)cc1 here?
Its value is inactive: 7.11%.
